{"source": "patent US9700578B2", "about": "“Use of nitrite salts for the treatment of cardiovascular conditions” (The United States of America as represented by the …, priority 2003, dated 2017)", "system": "hypoxic-induced pulmonary hypertension"}
{"smiles": "O=NO", "note": "[sodium nitrite]", "values": [{"measurement": "exhaled NO after nitrite nebulization", "setting": "hypoxia, before 3±1", "value": "15±4", "unit": "ppb"}, {"measurement": "iron-nitrosyl-hemoglobin (chemiluminescence and EPR)", "setting": "nitrite inhalation during hypoxia", "value": "markedly increased"}]}
